The text below walks through data of PMC11885506, “Evaluation of a non-animal toolbox informed by adverse outcome pathways for human inhalation safety” (Frontiers in Toxicology, 2025).

In the data set the test system is EpiAlveolar™ model. As to the kind of experiment: Bioactivity exposure ratio (BER): lowest in vitro PoD of EpiAlveolar readouts / lower respiratory tract exposure estimate or Cmax. More on the design: species or system human.

Structures can show the parent of a compound that is named as a salt.

Consider `COc1cccc2c1C(=O)c1c(O)c3c(c(O)c1C2=O)C[C@@](O)(C(=O)CO)C[C@@H]3O[C@H]1C[C@H](N)[C@H](O)[C@H](C)O1` [Doxorubicin, Doxorubicin hydrochloride], for which the BER (therapeutic dose high-risk scenario, all readouts, all days) is on record as 0.0005–0.2.

For `CCCCc1oc2ccccc2c1C(=O)c1cc(I)c(OCCN(CC)CC)c(I)c1` [Amiodarone, Amiodarone hydrochloride], the “minimum BER” value (therapeutic dose scenario, transcriptomics PoDs) is recorded as 0.004.
